Measurements as given in PubChem BioAssay AID540256 (National Center for Advancing Translational Sciences (NCATS), 2011).
In all, about 300,000 compounds went through this assay and about 3,700 (1.2%) were called active. The shares of active, inactive and inconclusive entries below differ from those in the screen. The call rests on the fitted dose curve; tested in HEK293 cells. Potencies of inconclusive entries are doubtful fits and often do not repeat.

Test: qHTS for Inhibitors of binding or entry into cells for Lassa Virus; further: nearly all actives have a fitted effect of over 50% in size
Details: Lassa virus pseudotype entry inhibition, cell reporter; activity change, negative = inhibition: at 37.9 µM (top of the series) unless noted
On the % scale 0 is the no-effect control and ±100 the full control effect; potency means the concentration at half of the fitted maximal effect.

Row | Structure (SMILES) | activity change, negative = inhibition | Potency
1 | O=C(NCCC1=CCCCC1)N[C@@H](Cc1ccccc1)C(=O)O | inactive: -9.56% | –
2 | c1ccc(Nc2nc(CSc3ncn[nH]3)cs2)cc1 | inactive: -3.51% | –
3 | CC(C)(C)NC(=O)Cn1cc(C#N)c2cc(Br)ccc21 | – | inconclusive: 0.461 µM [inhibitor, full curve, poor fit]
4 | COc1cccc(CNC(=O)CCNC(=O)c2ccccc2OC)c1 | – | inconclusive: 10 µM [activator, partial curve, poor fit]
5 | COc1ccc(-c2cc(CS(=O)(=O)c3ccccc3)on2)cc1 | inactive: -3.13% [at 46.1 µM] | –
6 | COc1ccc(C(=O)CSc2nn3c(=O)c(C(C)(C)C)nnc3s2)cc1 | inactive: -22.4% | –
7 | CN(C)S(=O)(=O)c1cccc(NC(=S)NC23CC4CC(CC(C4)C2)C3)c1 | – | inconclusive: 12.6 µM [inhibitor, partial curve, poor fit]
8 | O=C(N/N=C/c1cccc([N+](=O)[O-])c1)c1nc2ccccc2c(=O)[nH]1 | inactive: 8.23% | –
9 | O=C(COC(=O)c1ccc2c(c1[N+](=O)[O-])C(=O)c1ccccc1C2=O)NC1CC1 | – | inconclusive: 10 µM [inhibitor, partial curve, poor fit]
10 | CCCc1cc(NC(=O)CCl)n(-c2ccccc2)n1 | – | inconclusive: 12.6 µM [inhibitor, partial curve, poor fit]
11 | Cc1ccc(C(=O)Nc2ccc(-n3c(C)nc4ccccc4c3=O)cc2)cc1[N+](=O)[O-] | – | inconclusive: 31.6 µM [inhibitor, single point]
12 | COc1ccc(COC(=O)N/N=C(\C)CC(=O)NCc2ccc(Cl)cc2)cc1 | – | inconclusive: 7.94 µM [inhibitor, partial curve, poor fit]
13 | COc1ccc(C2CC(=O)c3cc(-c4nc(-c5ccc(Cl)cc5)cs4)c(=O)[nH]c3C2)cc1 (stereo not given) | inactive: 1.93% [at 46.1 µM] | –
14 | CSc1nc2ccc(NS(=O)(=O)c3ccc([N+](=O)[O-])cc3)cc2s1 | inactive: 3.21% | –
15 | CC(=O)Nc1nonc1-c1nnc(SCC(=O)Nc2ccccc2Cl)n1C | inactive: -2.4% [at 46.1 µM] | –
16 | Cc1ccc(N(C(=O)c2snc(C(N)=O)c2N)C(C(=O)NCC2CCCO2)c2ccc3ncccc3c2)cc1 (stereo not given) | inactive: -4.29% | –
17 | Cc1ccc(S(=O)(=O)N(CC(=O)Nc2ccc(Cl)c([N+](=O)[O-])c2)C2CCCCC2)cc1 | – | inconclusive: 8.91 µM [inhibitor, partial curve, poor fit]
18 | NC(=NCCc1c[nH]c2ccccc12)NC(=O)c1ccc(Cl)cc1 | – | inconclusive: 35.5 µM [inhibitor, single point]
19 | CCN(CC)S(=O)(=O)c1ccc2c(c1)N(CC(=O)N1CCN(c3cc(Cl)ccc3C)CC1)C(=O)CO2 | – | inconclusive: 31.6 µM [activator, single point]
20 | CCc1ccccc1N1CC(c2nnc(NC(=O)c3ccco3)s2)CC1=O (stereo not given) | inactive: 13.2% [at 46.1 µM] | –
21 | CCN(CC)c1ccc2c(C)c(Cl)c(=O)oc2c1 | – | inconclusive: 8.91 µM [inhibitor, partial curve, poor fit]
22 | CC(=O)OCc1cnc(C)c2oc(=O)c(C(=O)Nc3ccc(F)cc3C)cc12 | inactive: -0.678% [at 46.1 µM] | –
23 | O=C(NC(NNc1ccc([N+](=O)[O-])cc1)(C(F)(F)F)C(F)(F)F)c1ccccc1Cl | inactive: 5.45% | –
24 | COc1ccccc1C(=O)Nc1ccccc1N1CCN(C(=O)c2ccc(Cl)cc2)CC1 | – | inconclusive: 7.94 µM [inhibitor, partial curve]

Row | Structure (SMILES) | activity change, negative = inhibition | Potency
25 | COc1ccc(-n2c(=O)c3ccccc3n(Cc3ccc(F)cc3Cl)c2=O)cc1OC | inactive: 6.29% [at 46.1 µM] | –
26 | COc1ccc2nc(C)cc(NCc3ccc(F)cc3)c2c1 | – | inconclusive: 35.5 µM [activator, single point]
27 | Cc1nn(-c2ccccc2)c2c1C1(C(=O)N(C)c3ccccc31)C(C#N)=C(N)O2 (stereo not given) | – | inconclusive: 29.1 µM [inhibitor, single point]
28 | Cc1cc(S(=O)(=O)Nc2cc3c(cc2N2CCOCC2)n(C)c(=O)n3C)ccc1F | – | inconclusive: 5.62 µM [inhibitor, partial curve]
29 | COc1ccc(/C=C/C(=O)NC(=S)Nc2cc3oc4ccccc4c3cc2OC)cc1 | inactive: -11.6% | –
30 | Cc1noc(C)c1CSc1nc2ccccc2n1CCc1ccccc1 | – | inconclusive: 29.1 µM [inhibitor, single point]
31 | CCOC(=O)c1cc(NC(=O)c2ccc(Cl)cc2)c(=O)oc1-c1ccccc1 | – | inconclusive: 4.11 µM [inhibitor, partial curve, poor fit]
32 | Cc1ccc(N(NC(=O)C(O)(c2ccccc2)c2ccccc2)C(=O)CCl)cc1 | – | inconclusive: 1.16 µM [inhibitor, single point]
33 | CCOc1ccc(S(=O)(=O)N(C)c2ccc(OCC(=O)NCC3CCCCC3)cc2)cc1 | – | inconclusive: 1.12 µM [inhibitor, single point]
34 | Cc1nn(C)cc1/C=C/C(=O)c1ccccc1 | inactive: 29.1% | –
35 | Cc1ccc(C)c(Cn2c3ccccc3c3cnn(CC(=O)NCCCN4CCOCC4)c(=O)c32)c1 | inactive: -2.18% [at 46.1 µM] | –
36 | CCOC(=O)c1c(C)[nH]c(C(=O)OC(C)C(=O)Nc2ccccc2OC)c1C (stereo not given) | – | inconclusive: 22.4 µM [inhibitor, partial curve, poor fit]
37 | O=C1CCCc2nc3c(cc21)C(O)Oc1c-3ccc2ccccc12 (stereo not given) | inactive: -9.02% | –
38 | CCC(CC)C(=O)Nc1c(C(=O)N2CCN(c3ccccc3F)CC2)oc2ccccc12 | – | inconclusive: 35.5 µM [inhibitor, single point]
39 | CCN1CCN(c2ccc(NC(=O)c3cccnc3)cc2Cl)CC1 | inactive: -4.3% | –
40 | COc1ccc(/C(N)=C/C(=O)C(C)(C)C)cc1 | inactive: -21.6% | –
41 | COc1cc2c(cc1OC)C1=NC(=O)CN1C(SCc1ccc(C)cc1)=N2 | inactive: -27.7% | –
42 | COc1ccc(CCNC(=O)CN(c2ccc(C)cc2)S(=O)(=O)c2ccc(OC)cc2)cc1 | inactive: -9.48% [at 46.1 µM] | –
43 | O=C(N/N=C/c1cc(Cl)ccc1O)C(=O)Nc1ccccc1OC(F)(F)C(F)F | – | inconclusive: 7.08 µM [inhibitor, full curve, poor fit]
44 | CCCOc1ccc(C(=O)N2CCCc3ccccc32)cc1 | – | inconclusive: 16.4 µM [inhibitor, partial curve, poor fit]
45 | CCC(Oc1ccccc1)C(=O)Nc1ccccc1C(=O)N1CCCCC1 (stereo not given) | – | inconclusive: 8.91 µM [inhibitor, single point]
46 | Cc1cc(C(=O)CSc2n[nH]c(N)n2)c(C)n1-c1ccc2c(c1)OCO2 | inactive: 5.95% | –
47 | COc1ccc(S(=O)(=O)N2Cc3ccccc3CC2C(=O)Nc2nccs2)cc1 (stereo not given) | – | inconclusive: 32.6 µM [inhibitor, single point]
48 | OC(CN1CCN(Cc2ccc3c(c2)OCO3)CC1)c1c[nH]c2ccccc12 (stereo not given) | – | inconclusive: 10 µM [inhibitor, partial curve, poor fit]

Part of the list above in order of length of the SMILES, largest number first:
Row | Structure (SMILES) | activity change, negative = inhibition | Potency
35 | Cc1ccc(C)c(Cn2c3ccccc3c3cnn(CC(=O)NCCCN4CCOCC4)c(=O)c32)c1 | inactive: -2.18% [at 46.1 µM] | –
42 | COc1ccc(CCNC(=O)CN(c2ccc(C)cc2)S(=O)(=O)c2ccc(OC)cc2)cc1 | inactive: -9.48% [at 46.1 µM] | –
27 | Cc1nn(-c2ccccc2)c2c1C1(C(=O)N(C)c3ccccc31)C(C#N)=C(N)O2 (stereo not given) | – | inconclusive: 29.1 µM [inhibitor, single point]
28 | Cc1cc(S(=O)(=O)Nc2cc3c(cc2N2CCOCC2)n(C)c(=O)n3C)ccc1F | – | inconclusive: 5.62 µM [inhibitor, partial curve]
38 | CCC(CC)C(=O)Nc1c(C(=O)N2CCN(c3ccccc3F)CC2)oc2ccccc12 | – | inconclusive: 35.5 µM [inhibitor, single point]
25 | COc1ccc(-n2c(=O)c3ccccc3n(Cc3ccc(F)cc3Cl)c2=O)cc1OC | inactive: 6.29% [at 46.1 µM] | –
32 | Cc1ccc(N(NC(=O)C(O)(c2ccccc2)c2ccccc2)C(=O)CCl)cc1 | – | inconclusive: 1.16 µM [inhibitor, single point]
31 | CCOC(=O)c1cc(NC(=O)c2ccc(Cl)cc2)c(=O)oc1-c1ccccc1 | – | inconclusive: 4.11 µM [inhibitor, partial curve, poor fit]
47 | COc1ccc(S(=O)(=O)N2Cc3ccccc3CC2C(=O)Nc2nccs2)cc1 (stereo not given) | – | inconclusive: 32.6 µM [inhibitor, single point]
48 | OC(CN1CCN(Cc2ccc3c(c2)OCO3)CC1)c1c[nH]c2ccccc12 (stereo not given) | – | inconclusive: 10 µM [inhibitor, partial curve, poor fit]
41 | COc1cc2c(cc1OC)C1=NC(=O)CN1C(SCc1ccc(C)cc1)=N2 | inactive: -27.7% | –
45 | CCC(Oc1ccccc1)C(=O)Nc1ccccc1C(=O)N1CCCCC1 (stereo not given) | – | inconclusive: 8.91 µM [inhibitor, single point]
39 | CCN1CCN(c2ccc(NC(=O)c3cccnc3)cc2Cl)CC1 | inactive: -4.3% | –
30 | Cc1noc(C)c1CSc1nc2ccccc2n1CCc1ccccc1 | – | inconclusive: 29.1 µM [inhibitor, single point]
26 | COc1ccc2nc(C)cc(NCc3ccc(F)cc3)c2c1 | – | inconclusive: 35.5 µM [activator, single point]
44 | CCCOc1ccc(C(=O)N2CCCc3ccccc32)cc1 | – | inconclusive: 16.4 µM [inhibitor, partial curve, poor fit]
34 | Cc1nn(C)cc1/C=C/C(=O)c1ccccc1 | inactive: 29.1% | –

Following part:

Row | Structure (SMILES) | activity change, negative = inhibition | Potency
49 | CCCCN1C2=NC(c3ccccc3)CN2c2ccccc21 (stereo not given) | inactive: -11.4% | –
50 | Clc1ccccc1CNc1ncnc2nc[nH]c12 | inactive: 3.54% | –
51 | COc1ccc(OC)c(NC(=O)CSC2=Nc3ccccc3C3=NC(CCC(=O)NCc4ccco4)C(=O)N23)c1 (stereo not given) | – | inconclusive: 35.5 µM [inhibitor, single point]
52 | O=C(C1CCN(Cc2ccc(Cl)cc2)CC1)N1CCN(C(c2ccccc2)c2ccccc2)CC1 | – | inconclusive: 35.5 µM [inhibitor, single point]
53 | Cc1ccc(-c2nnc(SCCOc3ccccc3)o2)cc1 | inactive: 18.3% [at 46.1 µM] | –
54 | CC1CCN(C(=O)CSc2c3c(nc4cc(Cl)ccc24)CCCC3)CC1 | – | inconclusive: 14.1 µM [activator, single point]
55 | COc1ccc(C2CC(c3ccc(C)o3)=NN2C(C)=O)cc1 (stereo not given) | inactive: 4.85% | –
56 | c1ccc(-c2oc3ncnc(NCCCn4ccnc4)c3c2-c2ccccc2)cc1 | inactive: -29.6% | –
57 | Cc1ccc(NNC(=O)c2c(F)cccc2Cl)cc1C | inactive: -17.4% [at 46.1 µM] | –
58 | COc1cc(OC)c(C2=NOC(C(=O)NCc3cccs3)C2)cc1Cl (stereo not given) | – | inconclusive: 6.31 µM [inhibitor, single point]
59 | CCOc1ccc(-n2nc(CO)c(C(=O)NCc3ccc(Cl)cc3)n2)cc1 | – | inconclusive: 3.55 µM [inhibitor, partial curve, poor fit]
60 | O=C(O)c1cccc(-c2nnn(Cc3ccccc3Cl)n2)c1 | – | active: 8.2 µM
61 | COc1ccccc1N1CCN(c2ccc3cc(S(=O)(=O)N4CCCCC4)ccc3n2)CC1 | – | inconclusive: 1 µM [inhibitor, full curve, poor fit]
62 | Cc1cccc(C)c1NC(=O)c1nc(S(=O)(=O)Cc2ccccc2)ncc1Cl | – | inconclusive: 35.5 µM [inhibitor, single point]
63 | CC(C)OC(=O)c1cc2c(ccn2C)n1CC(=O)N(Cc1ccccc1)c1ccccc1 | – | active: 3.16 µM
64 | Cc1cccc(C)c1OCC(=O)Nc1oc(-c2ccccc2)c(-c2ccccc2)c1C#N | – | inconclusive: 28.2 µM [inhibitor, partial curve, poor fit]
65 | c1ccc(-c2cn(-c3ccccc3)c3ncnc(N4CCN(c5ccccc5)CC4)c23)cc1 | inactive: 4.43% [at 46.1 µM] | –
66 | CCOC(=O)c1c(C)[nH]c(C2=NNC(=Nc3ccc(OCC)cc3)SC2)c1C | – | inconclusive: 12.6 µM [inhibitor, partial curve, poor fit]
67 | COc1ccc2cc(C(=O)c3ccccc3)c(=O)oc2c1 | – | inconclusive: 2.06 µM [activator, partial curve, poor fit]
68 | O=C(CCC(=O)Nc1ccccc1Cl)NNC(=O)NC1CCCCC1 | inactive: 9.75% | –
69 | Cc1[nH]c2ccccc2c1C(=O)/C=C/c1ccccc1Cl | – | inconclusive: 4.47 µM [activator, partial curve, poor fit]
70 | NC(=O)c1ccccc1NC(=O)Nc1cccc(Cl)c1 | – | inconclusive: 20.6 µM [activator, partial curve, poor fit]
